Reference: US10322143B2, “Inhibitors of ADAMTS4 or ADAMTS5 for use in preventing or treating cardiac remodeling and chronic heart failure” (Universitetet i Oslo, priority 2013, dated 2019)

Test system: aortic banding rats
Test: Aortic banding rat model: echocardiography and organ weights after PPS-treatment
Assay type: in vivo
Settings: PPS 6 mg/kg s.c. every third day, mean ± SEM
Source text: The experimental procedures conformed to the European Convention for the Protection of Vertebrate Animals Used for Experimental and Other Scientific Purposes, and the protocols were approved by the Norwegian Council for Animal Research. Male Wistar rats weighing 160-170 g underwent AB essentially as described previously (Lunde et al. Physiol Genomics 2011. 44(2):162-72). Briefly, the ascending aorta was dissected free through a right hemithoracotomy, and ligated (3-0 silk) against a steel wire. The sham-operated rats (sham) were subjected to the same surgical procedure with a loose suture around the aorta. In all surgical procedures performed, a mixture of 67% N2O, 28% O2, and 4% isoflurane in an anaesthesia chamber was used for preoperative sedation. To maintain anaesthesia preoperatively, a mixture of 69% N2O, 29% O2, and 2% isoflurane was given by the endotracheal tube and the animals were ventilated on a respirator (Zoovent, Triumph Technical Services, Milton Keynes, UK). Buprenorphine was given as postoperative analgesia after AB.
In vivo heart function was evaluated using the Vevo2100 system (Visualsonics Inc, Canada) as previously described (Sjaastad et al. J Appl Physiol 2000; 89:1445-54). Thereafter, the heart was excised under deep anaesthesia, washed in saline and blotted dry to remove blood in the cardiac chambers. […]

pentosan polysulfate [PPS] showed a Body wt (aortic banding rats, six weeks after AB) of 363 ± 6 g and a Body wt (sham-operated rats, six weeks) of 408 ± 18 g.
